The values below come from doi:10.1101/2024.07.25.605106.

The chains behind the UniProt entries cited, without tags or fusion partners.
UniProt Q9Y6K9: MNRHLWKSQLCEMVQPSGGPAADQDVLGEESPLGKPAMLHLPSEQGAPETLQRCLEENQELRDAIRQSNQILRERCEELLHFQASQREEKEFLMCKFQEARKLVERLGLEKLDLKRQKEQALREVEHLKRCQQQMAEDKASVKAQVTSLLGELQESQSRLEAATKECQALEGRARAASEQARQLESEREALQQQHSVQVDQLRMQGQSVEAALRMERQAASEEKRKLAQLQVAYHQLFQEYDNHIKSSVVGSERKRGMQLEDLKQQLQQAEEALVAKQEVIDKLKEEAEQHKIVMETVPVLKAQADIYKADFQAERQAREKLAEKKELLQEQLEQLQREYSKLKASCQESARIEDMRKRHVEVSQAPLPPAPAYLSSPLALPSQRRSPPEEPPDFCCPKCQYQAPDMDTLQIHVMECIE
UniProt P42224: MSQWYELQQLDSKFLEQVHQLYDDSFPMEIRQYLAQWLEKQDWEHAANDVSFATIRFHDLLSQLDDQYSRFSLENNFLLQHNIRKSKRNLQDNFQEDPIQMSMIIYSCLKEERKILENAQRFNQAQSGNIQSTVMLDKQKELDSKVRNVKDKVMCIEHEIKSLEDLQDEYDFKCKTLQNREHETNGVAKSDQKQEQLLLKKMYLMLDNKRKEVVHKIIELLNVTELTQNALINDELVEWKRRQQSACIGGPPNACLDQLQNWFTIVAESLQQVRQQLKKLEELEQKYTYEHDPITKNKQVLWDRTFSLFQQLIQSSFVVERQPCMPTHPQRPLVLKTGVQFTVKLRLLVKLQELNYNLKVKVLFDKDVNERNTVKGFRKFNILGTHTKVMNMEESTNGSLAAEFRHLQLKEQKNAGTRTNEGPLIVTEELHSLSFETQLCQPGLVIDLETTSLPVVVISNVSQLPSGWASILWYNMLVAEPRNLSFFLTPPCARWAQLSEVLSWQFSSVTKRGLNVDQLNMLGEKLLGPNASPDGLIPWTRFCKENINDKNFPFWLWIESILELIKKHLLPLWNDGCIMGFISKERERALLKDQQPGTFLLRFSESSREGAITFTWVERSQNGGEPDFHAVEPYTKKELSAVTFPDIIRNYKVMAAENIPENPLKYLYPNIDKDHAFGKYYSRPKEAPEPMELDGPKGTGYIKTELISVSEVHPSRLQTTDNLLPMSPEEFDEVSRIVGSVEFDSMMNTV

The target in the assay is T1, CYLD (human (endogenous in THP-1)) (UniProt Q9NQC7).
T1 sequence: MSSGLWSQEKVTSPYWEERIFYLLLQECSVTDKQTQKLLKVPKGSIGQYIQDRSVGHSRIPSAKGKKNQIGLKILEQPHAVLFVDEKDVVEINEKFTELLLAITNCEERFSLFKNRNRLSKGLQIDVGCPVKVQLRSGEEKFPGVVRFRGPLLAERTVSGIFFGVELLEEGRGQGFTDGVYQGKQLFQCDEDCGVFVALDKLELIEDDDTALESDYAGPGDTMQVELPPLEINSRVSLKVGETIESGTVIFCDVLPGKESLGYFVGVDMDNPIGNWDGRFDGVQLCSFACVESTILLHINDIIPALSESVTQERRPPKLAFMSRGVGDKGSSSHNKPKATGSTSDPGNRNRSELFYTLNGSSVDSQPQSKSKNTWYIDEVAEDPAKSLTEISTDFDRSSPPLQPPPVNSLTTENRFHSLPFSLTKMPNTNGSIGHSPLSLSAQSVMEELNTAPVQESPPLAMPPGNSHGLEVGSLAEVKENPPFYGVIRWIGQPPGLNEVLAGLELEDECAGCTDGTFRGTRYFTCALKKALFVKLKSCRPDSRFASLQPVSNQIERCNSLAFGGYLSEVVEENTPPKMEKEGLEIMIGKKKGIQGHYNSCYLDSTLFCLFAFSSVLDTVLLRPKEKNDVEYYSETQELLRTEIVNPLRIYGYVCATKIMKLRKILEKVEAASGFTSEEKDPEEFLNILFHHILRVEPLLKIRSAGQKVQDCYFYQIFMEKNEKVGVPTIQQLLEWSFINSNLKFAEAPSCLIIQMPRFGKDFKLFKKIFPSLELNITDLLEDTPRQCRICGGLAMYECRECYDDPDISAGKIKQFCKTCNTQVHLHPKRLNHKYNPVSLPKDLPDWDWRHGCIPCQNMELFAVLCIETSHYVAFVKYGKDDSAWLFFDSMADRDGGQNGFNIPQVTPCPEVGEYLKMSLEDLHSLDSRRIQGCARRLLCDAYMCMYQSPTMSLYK
The assay is described as follows: co-IP.

Results are given in words; binding and its absence hold for the method and conditions named. In cells and extracts the contact can be indirect. Some entries that bind do so weakly or less than the wild type.

As to IKKγ/NEMO (from UniProt Q9Y6K9 1-419), the binding entry is on record as “binds”.

On to STAT1 (from UniProt P42224 1-750), for which the binding result is reported as “binds”.
